Some of these results come from one statement about several compounds together. For at least one compound, name, drawing or mass did not settle the structure.
Tested on: 4T1 tumor cells
Assay: 4T1 mouse mammary tumor model, spontaneous lung metastasis
Type: in vivo
Settings: BALB/c mice; 10 mg/kg or 20 mg/kg intraperitoneally; clonogenic assay

| Structure (SMILES) | reduction of number of metastasized 4T1 cells in the lungs |
| --- | --- |
| COC1C=CCCCCC(=O)CCC(C)=CC(C)C1O (centres unmarked) [macroketone, Migrastatin ketone] | 91%-99% |
| COC1C=CCCCCC(=O)NCC(C)=CC(C)C1O (centres unmarked) [macrolactam, Migrastatin lactam] | 91%-99% |
